Results taken from patent US20030186286A1.
Results are given in words; binding and its absence hold for the method and conditions named. Some binding calls cover weakened binding; strength is not graded here.

The chains behind the UniProt entries cited, without tags or fusion partners. Residues count along the entry.
UniProt P42227, residues 2-770: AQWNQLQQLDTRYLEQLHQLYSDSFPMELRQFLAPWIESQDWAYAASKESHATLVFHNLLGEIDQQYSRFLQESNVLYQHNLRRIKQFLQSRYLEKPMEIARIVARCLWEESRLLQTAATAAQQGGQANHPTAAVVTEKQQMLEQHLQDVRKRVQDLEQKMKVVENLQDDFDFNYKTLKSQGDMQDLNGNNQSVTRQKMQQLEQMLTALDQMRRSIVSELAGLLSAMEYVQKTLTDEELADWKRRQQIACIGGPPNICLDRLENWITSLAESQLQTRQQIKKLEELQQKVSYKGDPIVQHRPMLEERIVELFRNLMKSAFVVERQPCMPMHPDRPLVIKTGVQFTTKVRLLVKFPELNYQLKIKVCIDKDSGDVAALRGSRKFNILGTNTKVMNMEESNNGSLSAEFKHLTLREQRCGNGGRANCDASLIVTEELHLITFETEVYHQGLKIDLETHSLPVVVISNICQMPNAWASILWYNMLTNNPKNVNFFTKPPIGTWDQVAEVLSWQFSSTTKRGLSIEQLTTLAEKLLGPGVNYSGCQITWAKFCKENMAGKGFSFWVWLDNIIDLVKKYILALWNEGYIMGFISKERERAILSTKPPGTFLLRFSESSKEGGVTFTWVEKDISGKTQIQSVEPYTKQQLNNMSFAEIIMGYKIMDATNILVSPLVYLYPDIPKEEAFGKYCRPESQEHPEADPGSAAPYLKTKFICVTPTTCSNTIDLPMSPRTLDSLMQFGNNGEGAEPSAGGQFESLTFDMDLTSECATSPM

Experiments:
STAT-3 = STAT-3 (UniProt P42227); assay: EMSA on the SOCS-3 promoter oligoprobe (-77 to -57); bands identified by antibody supershift
STAT-1 = STAT-1 (UniProt P42225); assay: as above

Row | binding (STAT-3) | binding (STAT-1) | Molecule
1 | binds |  | STAT-3 (from UniProt P42227 2-770)
2 | binds | binds | STAT-1 (protein, UniProt P42225 2-749, looked up) SQWFELQQLDSKFLEQVHQLYDDSFPMEIRQYLAQWLEKQDWEHAAYDVSFATIRFHDLLSQLDDQYSRFSLENNFLLQHNIRKSKRNLQDNFQEDPVQMSMIIYNCLKEERKILENAQRFNQAQEGNIQNTVMLDKQKELDSKVRNVKDQVMCIEQEIKTLEELQDEYDFKCKTSQNREGEANGVAKSDQKQEQLLLHKMFLMLDNKRKEIIHKIRELLNSIELTQNTLINDELVEWKRRQQSACIGGPPNACLDQLQTWFTIVAETLQQIRQQLKKLEELEQKFTYEPDPITKNKQVLSDRTFLLFQQLIQSSFVVERQPCMPTHPQRPLVLKTGVQFTVKSRLLVKLQESNLLTKVKCHFDKDVNEKNTVKGFRKFNILGTHTKVMNMEESTNGSLAAELRHLQLKEQKNAGNRTNEGPLIVTEELHSLSFETQLCQPGLVIDLETTSLPVVVISNVSQLPSGWASILWYNMLVTEPRNLSFFLNPPCAWWSQLSEVLSWQFSSVTKRGLNADQLSMLGEKLLGPNAGPDGLIPWTRFCKENINDKNFSFWPWIDTILELIKNDLLCLWNDGCIMGFISKERERALLKDQQPGTFLLRFSESSREGAITFTWVERSQNGGEPDFHAVEPYTKKELSAVTFPDIIRNYKVMAAENIPENPLKYLYPNIDKDHAFGKYYSRPKEAPEPMELDDPKRTGYIKTELISVSEVHPSRLQTTDNLLPMSPEEFDEMSRIVGPEFDSMMSTV
